Laboratory results: PubChem BioAssay (NCATS)
The inconclusive results got no clear call from the source; some entries with a clear call stand among them for comparison. A call without a number means that no potency is given here. Potencies of inconclusive entries are doubtful fits and often do not repeat. Calls of active or inactive are those of the source. Calls come from the whole dose curve; as a rule, active = well fitted inhibition curve with a large enough effect; inconclusive = small, poorly fitted or top-dose-only effect; inactive = no such curve, though single readings can be large or run the other way.

Each molecule was assayed against Retinaldehyde dehydrogenase 3 (Homo sapiens) (UniProt P47895) (assay: qHTS for Inhibitors of the Aldehyde Dehydrogenase Family (ALDH1A3) Validation screen (AID 2061312; note: nearly all actives have a fitted effect of over 45% in size)). Conditions: ALDH1A3 enzyme inhibition qHTS validation, fluorescence; activity change, negative = inhibition: at 84.7 µM (top of the series).
Potency is the fitted concentration of half-maximal effect.

SMILES	Potency
O=Nc1c(-c2c(O)[nH]c3cc(Br)ccc23)[nH]c2ccccc12	inconclusive: 11.2 µM [inhibitor, partial curve]
COc1ccc(/C=C/c2nc(NCCCN(C)C)c3ccccc3n2)cc1	inconclusive: 3.16 µM [inhibitor, partial curve]
CN1CCC2(CCN3CCc4c(oc5ccccc45)C3C2)N(C)C1=O (configuration not stated)	inconclusive: 5.01 µM [inhibitor, partial curve]

These molecules were tested against Retinal dehydrogenase 2 (Homo sapiens) (UniProt O94788) (assay: qHTS for Inhibitors of the Aldehyde Dehydrogenase Family (ALDH1A2) Confirmation screens (AID 2061314; note: nearly all actives have a fitted effect of over 65% in size)). Conditions: ALDH1A2 enzyme inhibition qHTS confirmation; activity, negative = inhibition: at 45.9 µM (top of the series) unless noted; series mostly up to 45.9 µM.

SMILES	Potency	activity, negative = inhibition
O=C(O)c1ccc(S(=O)(=O)N[C@H](Cc2ccc(C(F)(F)F)cc2)C(=O)O)cc1	inactive	–
Cc1ccc(-n2nc(C)c3c(C(=O)Nc4ccc(Br)c(C)c4)cc(C)nc32)cc1	inactive	–
C[C@@](Cc1ccccc1)(C(=O)O)N1C(=O)c2ccc(C(=O)O)cc2C1=O	inactive	–
O=C1C(c2c(O)[nH]c3ccccc23)=Nc2ccccc21	inconclusive: 5.04 µM [inhibitor, partial curve]	–
CC(=O)c1c(C)n(-c2cccc(C)c2)c2ccc(OC(=O)COc3ccccc3)cc12	inactive	–
Cc1ccc(CSc2ccc3nnc(CCNS(=O)(=O)c4ccc(C)cc4)n3n2)cc1	inactive	–
CCCc1nnc(-c2cnn(C)c2N)n1CCCn1ccnc1	inactive	–
O=C(Nc1cc(C(F)(F)F)cc(C(F)(F)F)c1)c1cnc(Cl)nc1C(F)(F)F	inactive	–
C[C@@H]1O[C@@H](O[C@H]2[C@H](O[C@H]3CO[C@@H](O[C@H]4CC[C@@]5(C)C(CC[C@]6(C)C5CC[C@]57OC[C@@]8(CC[C@](C)(CO)CC85)[C@H](O)C[C@]76C)C4(C)C)[C@H](O[C@@H]4O[C@H](CO)[C@@H](O)[C@H](O)[C@H]4O)[C@H]3O)O[C@H](CO)[C@@H](O)[C@@H]2O)[C@H](O)[C@H](O)[C@H]1O (some centres not stated)	–	inactive: -8.29% [at 10 µM]

Entries of single compounds from above. Order of values: Potency	activity, negative = inhibition
O=C1C(c2c(O)[nH]c3ccccc23)=Nc2ccccc21 as listed: inconclusive: 5.04 µM [inhibitor, partial curve]	–
O=C(O)c1ccc(S(=O)(=O)N[C@H](Cc2ccc(C(F)(F)F)cc2)C(=O)O)cc1 as listed: inactive	–
